This data set can be described thus: general procedure: Fmoc solid-phase peptide synthesis. Conditions: whole synthesis.

Some peptides are written in HELM: one residue between dots, names in brackets for other building blocks, links after the first $.

Regarding “PEPTIDE1{[ac].[dC].[dF].[dI].[dV].[dT].[dY].[dF].[dQ].[dD].[dN].[dT].[dD].[dD].[dN].[dD].[dF].[dK].[dE].G.[dA].[dP].[dF].[dN].[dD].[dK].[dF].[dL].[dE].[dY].G.[dD].G.[dE].[dF].[dK].[dK].[dI].G.[dE].[dA].[dT].[am]}$$$$V2.0”, the difficulty met result is recorded as “major side-product corresponding to the Asp-Gly deletion peptide, suggesting a poor Hmb dipeptide coupling yield”. Moreover, the isolated yield (overall isolated yield) was 9%.

These data come from US11472844B2 (priority 2017, dated 2022).
